# In publication PMC5732824:
# Sequences of proteins named here, by UniProt entry; tags and fusion partners are left off.
# UniProt Q92466: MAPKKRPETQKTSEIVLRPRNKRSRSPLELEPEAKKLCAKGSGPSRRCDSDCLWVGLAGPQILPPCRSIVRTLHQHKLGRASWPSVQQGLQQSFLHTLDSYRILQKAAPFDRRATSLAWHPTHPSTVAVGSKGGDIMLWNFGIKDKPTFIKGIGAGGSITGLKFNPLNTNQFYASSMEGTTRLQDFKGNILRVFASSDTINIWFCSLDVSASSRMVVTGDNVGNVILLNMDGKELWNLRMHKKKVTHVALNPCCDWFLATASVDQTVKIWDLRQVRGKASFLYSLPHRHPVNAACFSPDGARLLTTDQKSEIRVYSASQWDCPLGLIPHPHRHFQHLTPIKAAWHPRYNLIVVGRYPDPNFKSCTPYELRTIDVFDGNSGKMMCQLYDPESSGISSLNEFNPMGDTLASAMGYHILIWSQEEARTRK
# UniProt P12004: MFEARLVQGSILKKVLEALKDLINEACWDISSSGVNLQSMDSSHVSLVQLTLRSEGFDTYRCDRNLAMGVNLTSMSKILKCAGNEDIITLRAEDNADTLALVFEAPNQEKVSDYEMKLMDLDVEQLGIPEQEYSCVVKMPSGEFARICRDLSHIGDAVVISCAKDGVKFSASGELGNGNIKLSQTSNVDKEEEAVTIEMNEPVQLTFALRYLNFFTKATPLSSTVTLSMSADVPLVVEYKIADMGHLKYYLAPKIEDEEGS
# UniProt Q13111: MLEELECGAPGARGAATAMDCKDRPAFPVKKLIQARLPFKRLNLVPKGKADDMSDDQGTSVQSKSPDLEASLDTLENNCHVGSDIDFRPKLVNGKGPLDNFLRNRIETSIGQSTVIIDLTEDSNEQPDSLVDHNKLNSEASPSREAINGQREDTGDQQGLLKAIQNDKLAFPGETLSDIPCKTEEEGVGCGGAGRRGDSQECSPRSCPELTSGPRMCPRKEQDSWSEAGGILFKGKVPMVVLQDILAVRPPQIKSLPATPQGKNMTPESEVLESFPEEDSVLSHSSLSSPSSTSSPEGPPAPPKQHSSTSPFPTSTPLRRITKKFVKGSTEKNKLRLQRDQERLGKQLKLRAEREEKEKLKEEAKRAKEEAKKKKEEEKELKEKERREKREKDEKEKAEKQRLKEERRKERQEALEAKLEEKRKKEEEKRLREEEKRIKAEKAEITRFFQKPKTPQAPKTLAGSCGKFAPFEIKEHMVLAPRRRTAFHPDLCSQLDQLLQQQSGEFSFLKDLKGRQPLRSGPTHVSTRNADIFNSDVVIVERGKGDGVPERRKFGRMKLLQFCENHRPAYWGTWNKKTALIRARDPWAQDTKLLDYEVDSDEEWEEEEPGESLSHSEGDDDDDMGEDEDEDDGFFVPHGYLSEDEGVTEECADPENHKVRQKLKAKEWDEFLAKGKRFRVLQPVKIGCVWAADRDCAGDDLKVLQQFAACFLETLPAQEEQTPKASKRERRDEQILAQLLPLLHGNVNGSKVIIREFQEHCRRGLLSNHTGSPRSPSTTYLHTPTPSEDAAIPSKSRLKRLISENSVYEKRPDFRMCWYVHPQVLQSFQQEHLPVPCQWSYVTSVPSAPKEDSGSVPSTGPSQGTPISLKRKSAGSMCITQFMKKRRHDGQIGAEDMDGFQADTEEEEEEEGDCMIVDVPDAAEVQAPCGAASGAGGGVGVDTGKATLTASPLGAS
# Results are given in words; binding and its absence hold for the method and conditions named. Binding seen in cells or lysates may run through a third protein. Some binding calls cover weakened binding; strength is not graded here.
# Target: damaged DNA binding protein 2 (DDB2), HA- and FLAG-tagged (human) (UniProt Q92466)
# Assay: co-IP; anti-FLAG M2 beads; nuclease (Benzonase)-releasable soluble chromatin fraction (~500-1000 ug protein) of HeLa-DDB2 cells, parental HeLa as control; RIPA buffer, 4°C overnight; eluted with FLAG peptide; Western blot; with and without DNA damage
row,Substance,binding
1,proliferation cell nuclear antigen (PCNA) (from UniProt P12004 1-261),binds
2,chromatin assembly factor-1 (CAF-1) p150 (from UniProt Q13111 1-956),no binding
